The values below come from PMC13581288, “The chromokinesin Kid (KIF22) forms a homodimer, moves processively along microtubules, and transports double-stranded DNA” (eLife, 2024).

Negatives hold for the conditions tested. Where a protein sequence is shown, tags need not be part of it. For some assays here: The exact form of at least one protein or probe is not confirmed. For some assays here: At least one verdict rests on a figure or table, not on a statement of the authors.

One series deals with T1, XKid delta-tail (UniProt Q9I869).
T1 sequence (looked up, limits assumed): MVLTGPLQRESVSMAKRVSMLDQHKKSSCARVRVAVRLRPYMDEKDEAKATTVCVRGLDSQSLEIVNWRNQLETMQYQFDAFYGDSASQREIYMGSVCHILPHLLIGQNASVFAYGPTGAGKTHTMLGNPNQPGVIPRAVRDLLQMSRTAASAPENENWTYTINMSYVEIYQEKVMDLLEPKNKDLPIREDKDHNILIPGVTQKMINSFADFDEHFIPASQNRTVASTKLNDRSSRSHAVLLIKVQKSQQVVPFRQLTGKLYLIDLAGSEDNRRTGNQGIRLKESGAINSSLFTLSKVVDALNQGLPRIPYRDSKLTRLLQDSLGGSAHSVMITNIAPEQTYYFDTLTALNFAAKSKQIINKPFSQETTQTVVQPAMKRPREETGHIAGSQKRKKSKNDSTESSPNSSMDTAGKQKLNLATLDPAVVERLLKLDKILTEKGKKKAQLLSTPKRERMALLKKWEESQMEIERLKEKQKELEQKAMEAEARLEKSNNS
Nature of the series: single-molecule TIRF DNA transport on microtubules. The note with it: transport abolished (transport read-out), TIRF single-molecule motility assay on microtubules, assay buffer, recombinant protein, label: 5'-Cy3 on both strands, only the site is given.

Series [1] deals with T2, XKid full-length (XKidFL-mScarlet) (UniProt Q9I869).
T2 sequence (looked up): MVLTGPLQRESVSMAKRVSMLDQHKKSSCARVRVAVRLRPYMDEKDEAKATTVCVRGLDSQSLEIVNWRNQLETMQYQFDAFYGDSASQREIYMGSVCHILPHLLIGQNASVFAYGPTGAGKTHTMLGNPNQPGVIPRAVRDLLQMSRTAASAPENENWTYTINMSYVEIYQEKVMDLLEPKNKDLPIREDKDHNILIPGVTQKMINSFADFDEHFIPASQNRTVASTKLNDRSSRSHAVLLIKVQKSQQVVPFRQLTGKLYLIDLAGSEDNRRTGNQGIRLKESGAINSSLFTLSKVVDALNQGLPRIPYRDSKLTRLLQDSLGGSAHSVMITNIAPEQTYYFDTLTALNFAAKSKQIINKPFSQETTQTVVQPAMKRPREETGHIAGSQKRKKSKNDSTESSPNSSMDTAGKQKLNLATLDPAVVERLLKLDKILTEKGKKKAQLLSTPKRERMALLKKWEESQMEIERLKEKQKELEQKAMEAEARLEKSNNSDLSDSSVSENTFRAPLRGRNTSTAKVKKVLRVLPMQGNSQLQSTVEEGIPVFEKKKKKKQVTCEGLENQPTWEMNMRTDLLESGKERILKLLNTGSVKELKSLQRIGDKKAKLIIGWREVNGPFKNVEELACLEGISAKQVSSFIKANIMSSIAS
Nature of the series: single-molecule TIRF DNA transport on microtubules. The note with it: ssDNA movement not driven (transport read-out), TIRF single-molecule motility assay on microtubules, assay buffer, recombinant protein, residues 1-651, label: 5'-Cy3, single-stranded DNA.

As to “GAGAATCGCCGGTTGATAATCTTCCTAGTAGGTAGTATTGGTGTTGAGTCGCTCA / GAGAATCGCCGGTTGATAATCTTTGAGCGACTCAACACCAATACTACCTACTAGG [Cy3 dsDNA '100 bp' (oligos #1+#2)]”, the binding result with XKid delta-tail is “no binding”. Consider “GAGAATCGCCGGTTGATAATCTTCCTAGTAGGTAGTATTGGTGTTGAGTCGCTCA [Cy3 ssDNA (oligo #1)]”, for which the binding result in series [1] is listed as “no binding”.
